Measurements from publication doi:10.1101/2020.05.19.105320.
These are yes or no findings as the source states them, for the method shown. In cells and extracts the contact can be indirect. For some assays here: A result given as binding can be weak or reduced; the word gives no strength. Tags and fused reporters may be left off the sequences shown.

Tests used:
Assay in all cases: pull-down
[1] = target: H10CLPX E-domain (CLPXE) (human)
[2] = target: H10CLPX Zinc binding domain (CLPXZBD) (human)
[3] = target: His10-tagged CLPX (H10CLPX) (human)
[4] = target: CLPX4A (full-length CLPX with residues 120 to 123 SSTR replaced with AAAA) (human)

Row | binding [1] | binding [2] | binding [3] | binding [4] | Binder
1 | no binding | binds | binds |  | GST-PDIP38 (protein, UniProt Q9Y2S7 52-368) SSRNRPEGKVLETVGVFEVPKQNGKYETGQLFLHSIFGYRGVVLFPWQARLYDRDVASAAPEKAENPAGHGSKEVKGKTHTYYQVLIDARDCPHISQRSQTEAVTFLANHDDSRALYAIPGLDYVSHEDILPYTSTDQVPIQHELFERFLLYDQTKAPPFVARETLRAWQEKNHPWLELSDVHRETTENIRVTVIPFYMGMREAQNSHVYWWRYCIRLENLDSDVVQLRERHWRIFSLSGTLETVRGRGVVGREPVLSKEQPAFQYSSHVSLQASSGHMWGTFRFERPDGSHFDVRIPPFSLESNKDEKTPPSGLHW
2 |  | binds | binds | no binding | untagged PDIP38 (mature) (protein, UniProt Q9Y2S7 52-368) SSRNRPEGKVLETVGVFEVPKQNGKYETGQLFLHSIFGYRGVVLFPWQARLYDRDVASAAPEKAENPAGHGSKEVKGKTHTYYQVLIDARDCPHISQRSQTEAVTFLANHDDSRALYAIPGLDYVSHEDILPYTSTDQVPIQHELFERFLLYDQTKAPPFVARETLRAWQEKNHPWLELSDVHRETTENIRVTVIPFYMGMREAQNSHVYWWRYCIRLENLDSDVVQLRERHWRIFSLSGTLETVRGRGVVGREPVLSKEQPAFQYSSHVSLQASSGHMWGTFRFERPDGSHFDVRIPPFSLESNKDEKTPPSGLHW
3 |  |  | binds |  | GST-PDIP38N (domain or fragment, UniProt Q9Y2S7 52-153) SSRNRPEGKVLETVGVFEVPKQNGKYETGQLFLHSIFGYRGVVLFPWQARLYDRDVASAAPEKAENPAGHGSKEVKGKTHTYYQVLIDARDCPHISQRSQTE
4 |  |  | no binding |  | GST-PDIP38C (domain or fragment, UniProt Q9Y2S7 157-368) FLANHDDSRALYAIPGLDYVSHEDILPYTSTDQVPIQHELFERFLLYDQTKAPPFVARETLRAWQEKNHPWLELSDVHRETTENIRVTVIPFYMGMREAQNSHVYWWRYCIRLENLDSDVVQLRERHWRIFSLSGTLETVRGRGVVGREPVLSKEQPAFQYSSHVSLQASSGHMWGTFRFERPDGSHFDVRIPPFSLESNKDEKTPPSGLHW
